# Laboratory results reported in publication PMC10313624 (EJNMMI Radiopharmacy and Chemistry, 2023).
# Bridge positions count the residues as written; N and C are the ends. Square brackets hold non-standard residues; d marks the D form. Peptide text beside a SMILES is read from it. * marks the point of attachment. DOTA = O=C(O)CN1CCN(CC(=O)O)CCN(CC(=O)*)CCN(CC(=O)O)CC1; dPhe(4-NHCONH2) = NC(=O)Nc1ccc(C[C@@H](N)C(=O)O)cc1; Dihydroorotyl(S) = O=C1C[C@@H](C(=O)*)NC(=O)N1; Phe(4-Cl) = N[C@@H](Cc1ccc(Cl)cc1)C(=O)O; Phe(4-NH2) = Nc1ccc(C[C@H](N)C(=O)O)cc1
# Test system: H69 tumor-bearing mice
# Experiment: Dosimetry: absorbed dose per administered activity (MIRD, 25 g Olinda mouse phantom)
# Format: in vivo
# [1] = 25 g mouse phantom, alpha contribution weighted with RBE = 5
structure (smiles),measurement,setting,value
C[C@@H](O)[C@@H]1NC(=O)[C@H](CCCCN)NC(=O)[C@@H](Cc2ccc(NC(N)=O)cc2)NC(=O)[C@H](Cc2ccc(NC(=O)[C@@H]3CC(=O)NC(=O)N3)cc2)NC(=O)[C@H](NC(=O)[C@H](Cc2ccc(Cl)cc2)NC(=O)CN2CCN(CC(=O)O)CCN(CC(=O)O)CCN(CC(=O)O)CC2)CSSC[C@@H](C(=O)N[C@H](Cc2ccc(O)cc2)C(N)=O)NC1=O [[^225Ac]Ac-DOTA-JR11] [metal not drawn] ({DOTA}-[Phe(4-Cl)][dC][Phe(4-NH2)](Dihydroorotyl(S))[dPhe(4-NHCONH2)]KTC[dY]-NH2; disulfide 2-7 (inferred); C-terminus assumed),"Absorbed dose per administered activity d(rt), Tumor (150 mg)","0.15 cm^3 water sphere S-value (IDAC-dose), alpha RBE = 5",328.5 mGy/kBq
same,"Absorbed dose per administered activity d(rt), Heart",[1],11.2 mGy/kBq
same,"Absorbed dose per administered activity d(rt), Intestines",[1],40.3 mGy/kBq
same,"Absorbed dose per administered activity d(rt), Kidneys",[1],952.6 mGy/kBq
same,"Absorbed dose per administered activity d(rt), Liver",[1],271.4 mGy/kBq
same,"Absorbed dose per administered activity d(rt), Lungs",[1],37.2 mGy/kBq
same,"Absorbed dose per administered activity d(rt), Pancreas",[1],284.4 mGy/kBq
same,"Absorbed dose per administered activity d(rt), Skeleton",[1],0.1 mGy/kBq
same,"Absorbed dose per administered activity d(rt), Spleen",[1],76.4 mGy/kBq
same,"Absorbed dose per administered activity d(rt), Stomach Wall",[1],137.2 mGy/kBq
same,"Absorbed dose per administered activity d(rt), Total Body",[1],44.0 mGy/kBq
same,T/K ratio (tumor/kidney absorbed dose ratio),"actinium-225, alpha RBE = 5",0.35
